# Several values for one entry are separate records, joined by “and”; a condition that tells them apart may be missing. Identical values can stand only once. This list was built around the results that the source calls inconclusive (neither active nor inactive); the mix of calls is not that of the screen. A potency beside an inconclusive call is a rough fit, not a confirmed value. Activity calls are given as the source filed them. Rule for the calls: active = hit-call score of the fitted dose curve at least 0.9, where 1 is the maximum; inconclusive = response in the unintended direction; inactive = score below 0.9.
# Amino acid sequences for entries named in this document (tags omitted). A change or cut given only in a name is not applied to a line headed by its entry.
# UniProt Q96RI1: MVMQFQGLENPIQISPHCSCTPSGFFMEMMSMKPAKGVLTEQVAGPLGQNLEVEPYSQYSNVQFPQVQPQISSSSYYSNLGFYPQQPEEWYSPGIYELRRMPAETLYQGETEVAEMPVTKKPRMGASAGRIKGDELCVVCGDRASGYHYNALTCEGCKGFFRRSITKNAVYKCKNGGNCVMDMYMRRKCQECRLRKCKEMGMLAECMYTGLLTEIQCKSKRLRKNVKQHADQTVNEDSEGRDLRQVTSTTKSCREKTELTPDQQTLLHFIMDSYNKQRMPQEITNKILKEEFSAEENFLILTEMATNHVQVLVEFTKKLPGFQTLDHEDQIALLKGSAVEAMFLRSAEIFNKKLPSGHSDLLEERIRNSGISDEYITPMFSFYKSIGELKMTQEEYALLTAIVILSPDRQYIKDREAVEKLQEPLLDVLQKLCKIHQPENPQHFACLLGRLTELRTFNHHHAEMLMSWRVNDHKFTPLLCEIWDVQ
# Biological target: Bile acid receptor (Homo sapiens) (UniProt Q96RI1)
# Experiment: NVS_NR_hFXR_Agonist: NovaScreen (NVS) Nuclear Receptor Binding Assay for human Farnesoid X Receptor Agonism (FXR) (AID 2283347)
# Experimental: NVS_NR_hFXR_Agonist is a biochemical, single-readout assay that uses extracted gene-proteins in a cell-free assay. Measurements were taken 1 hour after chemical dosing in a 384-well plate.NVS_NR_hFXR_Agonist is one of one assay component(s) measured or calculated from the NVS_NR_hFXR_Agonist assay. It is designed to make measurements of fluorescent resonance energy transfer, a form of binding reporter, as detected with fluorescent resonance energy transfer signals by Time-Resolved Fluorescence Resonance Energy Transfer (TR-FRET) technology.Data from the assay component NVS_NR_hFXR_Agonist was analyzed into 1 assay endpoint. This assay endpoint, NVS_NR_hFXR_Agonist, was analyzed in the positive analysis fitting direction relative to DMSO as the negative control and baseline of activity. Using a type of binding reporter, gain-of-signal activity can be used to understand changes in the binding as they relate to the gene NR1H4. Furthermore, this assay endpoint can be referred to as a primary readout, because the performed assay has only produced 1 assay endpoint. To generalize the intended target to other relatable targets, this assay endpoint is annotated to the nuclear receptor intended target family, where the subfamily is non-steroidal.
# Binding assays used specific radioligands (tritiated, iodinated) with non-radioactive competitive displacement ligands in agonist or antagonist protocols (as indicated) and various reference compounds and inhibitors to titrate specific binding to receptors and transporters. Most enzyme assays (CYPs, kinases, phosphatases, proteases, HDACs) used recombinant protein and specific substrates (fluorescence mostly, some colorimetric and radioactive) and inhibitors, followed by a biochemical separation of substrate and product. All assays for the biochemical HTS were initially run in duplicate at a single concentration (10 uM for CYP450 assays and 25 uM for all others). […] Each assay was run with positive and negative controls, and concurrent controls on every plate. The follow-up (secondary) screen tested active chemical-pairs in concentration series, as well as a few additional assays not tested in the primary screen, some selected negative inactives, and several cases re-run in the concentration series for confirmatory purposes.
Compound,outcome,AC50
OCCOc1ccccc1,inactive,–
CC(C)(O)c1cnn2c(-c3ccc(F)c(-c4c(F)cccc4C#N)c3)cnc2n1,–,inconclusive: 43.2 µM
COP(=S)(OC)Oc1ccc([N+](=O)[O-])c(C)c1,–,inconclusive: 25 µM
O=C1C2(Cl)C3(Cl)C4(Cl)C(Cl)(Cl)C5(Cl)C3(Cl)C1(Cl)C5(Cl)C24Cl (stereo not drawn),inactive,–
Nc1ccc(N)cc1,–,inconclusive: 35.7 µM
C=CCC1=C(C)C(OC(=O)C2C(C=C(C)C)C2(C)C)CC1=O (stereo not drawn),inactive,inconclusive: 44.6 µM and inconclusive: 6.52 µM
COP(N)(=O)SC (stereo not drawn),–,inconclusive: 25 µM
Oc1cc(Cl)ccc1Oc1ccc(Cl)cc1Cl,inactive,inconclusive: 25.5 µM and inconclusive: 1.42 µM
Nc1c(Cl)cc([N+](=O)[O-])cc1Cl,inactive,–
Nc1ccc(N=Nc2ccccc2)cc1,–,inconclusive: 0.0216 µM
COC(=O)c1ccccc1C(=O)OC,inactive,–
CC1(C)CN=C(NN=C(/C=C/c2ccc(C(F)(F)F)cc2)/C=C/c2ccc(C(F)(F)F)cc2)NC1,–,inconclusive: 25 µM
O=S1(=O)OC(c2cc(Br)c(O)c(Br)c2)(c2cc(Br)c(O)c(Br)c2)c2ccccc21,–,inconclusive: 32.7 µM
O=S(=O)(O)C(F)(F)C(F)(F)C(F)(F)C(F)(F)C(F)(F)C(F)(F)F,inactive,–
COP(=S)(OC)Oc1nc(Cl)c(Cl)cc1Cl,inactive,–
C[C@]12CCC(=O)C=C1CC[C@@H]1[C@@H]2CC[C@@]2(C)[C@H]1CC[C@]2(C)O,inactive,inconclusive: 22.9 µM
CC(c1ccc(O)cc1)(c1ccc(O)cc1)c1ccc(O)cc1,inactive,–
N#Cc1nn(-c2c(Cl)cc(C(F)(F)F)cc2Cl)c(N)c1S(=O)C(F)(F)F (stereo not drawn),inactive,–
C[C@]12C=CC3=C4CCC(=O)C=C4CC[C@H]3[C@@H]1CC[C@@H]2O,–,inconclusive: 25 µM and inconclusive: 4.05 µM
Cc1cc(C2CC2)nc(Nc2ccccc2)n1,–,inconclusive: 25 µM
CCC(C)(C)c1ccc(O)c(C(C)(C)CC)c1,inactive,–
CCCN(CCC)c1c([N+](=O)[O-])cc(S(N)(=O)=O)cc1[N+](=O)[O-],–,inconclusive: 4.34 µM
ClC1(Cl)C2(Cl)C3(Cl)C4(Cl)C(Cl)(Cl)C5(Cl)C3(Cl)C1(Cl)C5(Cl)C24Cl (stereo not drawn),–,inconclusive: 25 µM
N#CCCCCC#N,–,inconclusive: 25 µM
CC(C)(C)OOC(C)(C)C,inactive,–

# — PubChem BioAssay (EPA / NIEHS)
